Source: patent publication US20180333382A1, “PHARMACEUTICAL COMPOSITIONS COMPRISING DGLA AND USE OF SAME” (DS Biopharma Limited, priority 2017, published 2018)
At least one read-out could not be matched to a standard name with certainty.

How the values were obtained:
Format in all cases: in vivo, human
[1] = Phase one study part 1: single dose plasma PK of free and total DGLA, fasted
Description: A single-center, double-blind, randomized, placebo-controlled, two part Phase one study was performed in healthy male and female subjects aged 18 to 45 years inclusive. The primary objective of this study was to assess the safety and plasma pharmacokinetics (PK) of orally administered single doses and orally administered multiple doses of DS107G capsules (once daily for 28 days) in healthy subjects.
(§1) Subjects were randomly assigned in a 3:1 ratio of DG107G to placebo by block randomization. Single dose part one of the study comprised three cohorts of eight subjects each, with the addition of Cohort four based on evaluation of the safety data of Cohort three by the Safety Monitoring Committee (SMC). A single oral dose of DS107G or matching placebo was administered to fasted subjects in Cohorts one to three (500, 1000, and 2000 mg, respectively) in parallel; subjects in Cohort four were administered a dose of 4000 mg following completion of Cohort three. Subjects in Cohort two received 1000 mg or matching placebo in the fed state at 14 days after the first dose.
Safety assessments were monitored throughout the study.
In Part one of the study, subjects in Cohorts one to three were administered a single dose of study drug (either 500-, 1000-, or 2000-mg as 500-mg DS107G capsules or matching placebo capsules) in parallel on study Day 1 after at least an 8-hour fast, according to Table 20. Cohort 4 was initiated following the review of safety data from Cohort 3 by the SMC.
Analysis of populations included the following: • The Intention-to-Treat (ITT) population consists of all randomized subjects who had been administered at least 1 dose of study drug. • The Per Protocol (PP) population consists of all subjects in the ITT population who had no major protocol violation, as defined in the SAP. • The PK population contains all subjects included in the PP population who had evaluable PK data derived from plasma. A plasma concentration observation was considered a valid, evaluable measurement if the following data were available: study identification number, randomization number, date and time of sampling, dose and concentration. A series of such measurements from the same sample were considered complete if each protocol prescribed concentration was evaluable. Plasma PK data were evaluable by definition if the data contained a complete series of observations. Any missing plasma PK observation would result in incomplete PK data, thus a subject with any missing plasma PK observation was excluded from the PK population. Subjects randomized to placebo were also excluded from the PK population.

[2] = Phase one study part 2: multiple dose (28 days) plasma PK of free and total DGLA
Description: Multiple dose part two of the study comprised two cohorts (Cohorts five and six) of eight subjects each, who were administered multiple doses of study drug in the fasted state for 28 days. Subjects in Cohorts five and six received DS107G at 2000 or 4000 mg, respectively, or matching placebo once daily for 28 days. Cohort six was started after Cohort five's safety data were evaluated by the SMC. No interim analysis was planned. […]
In Part two of the study (Cohorts five and six), subjects were administered study drug (500-mg DS107G capsules or matching placebo capsules) once daily in the fasted state for 28 days. Subjects in Cohort five received study drug first and, if they tolerated the 2000-mg daily dose for the first 14 days, subjects in Cohort six were started on the 4000-mg daily dose for 28 days.
PK parameter was computed after correcting the dosed DGLA concentrations with baseline DGLA concentrations.

[3] = Phase one study: effect of food on single 1000 mg dose PK (fasted vs fed); details: 1000 mg single dose
Description: as §1
Food effect was evaluated in Cohort two at least 14 days after the first dose at which time a second single dose was administered. Subjects were administered a 1000-mg dose of study drug with 240 mL of water after a 10-hour fasting period and 30 minutes after starting consumption of a meal. Subjects then refrained from food intake for at least 4 hours after dosing. Food consumption was standardized for at least 12 hours after dosing using a standardized high-fat meal (800 to 1000 kcal with 500 to 600 kcal from fat and 250 kcal from carbohydrates). A typical standard test meal consisted of two eggs fried in butter, two strips of bacon, two slices of toast with butter, 120 mL of hash brown potatoes, and 240 mL of whole milk. […]

## CCCCC/C=C\C/C=C\C/C=C\CCCCCCC(=O)O [DS107G, Dihomo gamma linolenic acid]
[1]; 500 mg single dose
  Vz/F, mean, free DGLA, baseline-corrected plasma: 10.035 kL
[1]; 1000 mg single dose
  Vz/F, mean, free DGLA, baseline-corrected plasma: 7.356 kL
[1]; 2000 mg single dose
  Vz/F, mean, free DGLA, baseline-corrected plasma: 8.977 kL
[1]; 4000 mg single dose
  Vz/F, mean, free DGLA, baseline-corrected plasma: 17.460 kL
[2]; 2000 mg once daily, Day 1, 0 to 24 hours
  Vz/F, mean, free DGLA, baseline-corrected plasma: 2.426 kL
[2]; 2000 mg once daily, Day 28, 0 to 24 hours
  Vz/F, mean, free DGLA, baseline-corrected plasma: 3.592 kL
[2]; 2000 mg once daily, Day 28, 0 to 168 hours
  Vz/F, mean, free DGLA, baseline-corrected plasma: 4.470 kL
[2]; 4000 mg once daily, Day 1, 0 to 24 hours
  Vz/F, mean, free DGLA, baseline-corrected plasma: 3.063 kL
[2]; 4000 mg once daily, Day 28, 0 to 24 hours
  Vz/F, mean, free DGLA, baseline-corrected plasma: 3.493 kL
[2]; 4000 mg once daily, Day 28, 0 to 168 hours
  Vz/F, mean, free DGLA, baseline-corrected plasma: 5.273 kL
[3]; fasted
  Vz/F, mean, free DGLA, baseline-corrected plasma: 7.356 kL
[3]; fed
  Vz/F, mean, free DGLA, baseline-corrected plasma: 4.623 kL
